These are yes or no findings as the source states them, for the method shown. Binding seen in cells or lysates may run through a third protein. A yes stands for co-enrichment or nearness to the bait. Other partners may have been found. A no says only that the protein was not detected with the bait. Where a sequence is shown, tags or fusion partners need not be part of it.
T1: Ubp10-GFP (S. cerevisiae) (UniProt P53874)
T1 sequence: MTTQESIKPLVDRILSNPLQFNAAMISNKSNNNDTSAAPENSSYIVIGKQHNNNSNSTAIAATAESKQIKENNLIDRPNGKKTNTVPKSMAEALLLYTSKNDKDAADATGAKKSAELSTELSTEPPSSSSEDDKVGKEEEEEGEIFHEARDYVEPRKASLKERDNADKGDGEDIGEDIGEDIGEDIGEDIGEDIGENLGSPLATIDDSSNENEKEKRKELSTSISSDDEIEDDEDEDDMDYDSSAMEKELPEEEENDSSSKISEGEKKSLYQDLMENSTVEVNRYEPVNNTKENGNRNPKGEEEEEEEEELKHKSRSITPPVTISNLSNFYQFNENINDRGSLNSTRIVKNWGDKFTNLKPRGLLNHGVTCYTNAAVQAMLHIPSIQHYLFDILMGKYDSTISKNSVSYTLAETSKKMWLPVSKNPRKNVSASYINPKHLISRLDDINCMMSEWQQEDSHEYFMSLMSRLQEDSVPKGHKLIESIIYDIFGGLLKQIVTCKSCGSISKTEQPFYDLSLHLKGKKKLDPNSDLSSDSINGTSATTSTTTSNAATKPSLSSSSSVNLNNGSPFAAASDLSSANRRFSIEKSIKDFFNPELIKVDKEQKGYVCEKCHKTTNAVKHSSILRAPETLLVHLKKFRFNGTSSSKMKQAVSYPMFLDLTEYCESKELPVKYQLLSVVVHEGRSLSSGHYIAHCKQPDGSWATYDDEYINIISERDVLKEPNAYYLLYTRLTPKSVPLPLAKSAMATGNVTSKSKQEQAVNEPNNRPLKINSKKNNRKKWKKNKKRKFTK

The chains behind the UniProt entries cited, without tags or fusion partners.
UniProt Q04636: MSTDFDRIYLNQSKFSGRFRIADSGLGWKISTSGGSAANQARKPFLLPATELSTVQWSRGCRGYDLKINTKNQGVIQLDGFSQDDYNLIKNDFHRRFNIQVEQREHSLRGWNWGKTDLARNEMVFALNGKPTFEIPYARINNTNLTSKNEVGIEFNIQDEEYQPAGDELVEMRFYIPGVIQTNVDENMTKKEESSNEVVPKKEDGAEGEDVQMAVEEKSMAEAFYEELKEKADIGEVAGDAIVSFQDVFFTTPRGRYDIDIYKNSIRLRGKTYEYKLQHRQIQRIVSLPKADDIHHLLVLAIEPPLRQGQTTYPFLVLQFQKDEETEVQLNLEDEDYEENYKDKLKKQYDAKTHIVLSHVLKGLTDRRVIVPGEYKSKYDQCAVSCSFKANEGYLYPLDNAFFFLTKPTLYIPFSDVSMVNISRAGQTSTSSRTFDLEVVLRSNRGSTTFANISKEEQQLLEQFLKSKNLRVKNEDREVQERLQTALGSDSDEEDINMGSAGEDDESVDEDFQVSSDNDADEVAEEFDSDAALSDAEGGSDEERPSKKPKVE
UniProt P32558: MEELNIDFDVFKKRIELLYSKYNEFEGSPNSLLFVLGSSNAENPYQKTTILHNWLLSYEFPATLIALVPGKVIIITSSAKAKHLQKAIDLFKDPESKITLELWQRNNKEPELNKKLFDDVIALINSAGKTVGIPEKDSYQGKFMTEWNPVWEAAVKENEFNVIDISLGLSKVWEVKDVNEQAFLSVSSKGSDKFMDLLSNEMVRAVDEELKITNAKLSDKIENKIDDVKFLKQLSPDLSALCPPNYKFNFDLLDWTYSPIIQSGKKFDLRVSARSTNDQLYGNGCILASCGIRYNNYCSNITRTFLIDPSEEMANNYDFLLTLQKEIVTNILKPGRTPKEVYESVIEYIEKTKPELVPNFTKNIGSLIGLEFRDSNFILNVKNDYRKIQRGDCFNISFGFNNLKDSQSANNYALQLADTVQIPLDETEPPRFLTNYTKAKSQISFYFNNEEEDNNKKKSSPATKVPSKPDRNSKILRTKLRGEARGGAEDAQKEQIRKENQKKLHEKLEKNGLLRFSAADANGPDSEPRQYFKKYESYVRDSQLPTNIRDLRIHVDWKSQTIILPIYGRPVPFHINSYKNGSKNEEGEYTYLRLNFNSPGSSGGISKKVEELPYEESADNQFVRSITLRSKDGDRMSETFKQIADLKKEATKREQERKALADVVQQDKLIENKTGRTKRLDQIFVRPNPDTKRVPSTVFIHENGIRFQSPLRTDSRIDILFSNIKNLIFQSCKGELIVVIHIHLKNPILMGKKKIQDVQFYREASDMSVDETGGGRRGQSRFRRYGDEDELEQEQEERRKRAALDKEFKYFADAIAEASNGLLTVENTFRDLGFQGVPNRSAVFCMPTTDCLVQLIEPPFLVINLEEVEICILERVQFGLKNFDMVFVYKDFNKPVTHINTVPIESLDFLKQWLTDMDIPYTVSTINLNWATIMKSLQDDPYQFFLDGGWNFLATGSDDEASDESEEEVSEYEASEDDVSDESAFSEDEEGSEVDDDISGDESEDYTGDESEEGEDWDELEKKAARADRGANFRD


target: T1, Ubp10-GFP (S. cerevisiae); assay: affinity purification with mass spectrometry

Molecule	binding
Pob3 (FACT subunit) (from UniProt Q04636 1-552)	binds
Rpa34 (RNA pol I subunit) (protein, UniProt P47006 1-233) MSKLSKDYVSDSDSDDEVISNEFSIPDGFKKCKHLKNFPLNGDNKKKAKQQQVWLIKFPSNVDISKLKSLPVDFESSTTMTIDKHDYKIMDDTDIESSLTQDNLSNMTLLVPSESKESLKIASTAKDNAPLQFDKVFSVSETAKIPAIDYSKVRVPRKDVPKVEGLKLEHFATGYDAEDFHVAEEVKENKKEPKKRSHHDDEEESSEKKKKKKEKREKREKKDKKDKKKKHRD	binds
Elg1 (RLC cofactor) (protein, UniProt Q12050 1-791) MKRHVSLSDILTGNKRKVRRQDALQITIDDENDTESGTFDARTAKHDDSSVIFLNHSVVKPIEAVSTNHKSAKEFLMTKRTKEKCDDDDDDLIVISDKSPKSETNCSKIALSQEHEDDISIISTSRIKSSLLNERASKIKNFLKHETTDTFKRLNSISKLNEIEPPLPLHQSIFPVGDKELSDRSVDIPLPFRTIPPLNHNFLPSDYESLKDKNSASCIPVRYQAPVLLGTNIKRNTTLTWPQLFKPVTLKQVLIEPKLKLRIKNWIETSFHTLEKPTLRNRLLNRINPNKQQGSGDELANFIVPDLEEDENLRPDFYRNGEANSSLSEFVPLMILHGNSIGKKTLIQTIMREIAGDDNSYQIYEVNSNMNRSKKDLLDILLDFTTTHYVKDSSKRKSDYGLVLFNDVDVLFKEHDRGYWAMISKLCEFSRRPLVLTCKDLSLVPSELIALASEQNSLFHTKKISTSTVYAFLTKYLKSLEIEVCDDWLRDVVKQNNADIRKCLMHLQFWCVDTEADLISSKNRLPVLTSTLGSSVKDISQLTDLLSINDVIGQATLNRSMVRQEIDSTTMTPEKVNTFQDQNLDDEMKLKFDYVIDYKLHLNDPNRQPLLPFELNIYQHIQEQLEARYSYVREANHRLDNEYLVNRFKKMTESTLNFLASRIPKYDHLQSARRTRNSKKISDILNQFKGIYNDETLNENAEIDLLSATTQQIKAEINPFVFEIAKSDANVKNENKQIFELHSENVSERRYKDLVYQLSQEGVLKNVWFNADPSIVVRKWEHLHSGFSKNK	no binding
Rpa43 (RNA pol I subunit) (protein, UniProt P46669 1-326) MSQVKRANENRETARFIKKHKKQVTNPIDEKNGTSNCIVRVPIALYVSLAPMYLENPLQGVMKQHLNPLVMKYNNKVGGVVLGYEGLKILDADPLSKEDTSEKLIKITPDTPFGFTWCHVNLYVWQPQVGDVLEGYIFIQSASHIGLLIHDAFNASIKKNNIPVDWTFVHNDVEEDADVINTDENNGNNNNEDNKDSNGGSNSLGKFSFGNRSLGHWVDSNGEPIDGKLRFTVRNVHTTGRVVSVDGTLISDADEEGNGYNSSRSQAESLPIVSNKKIVFDDEVSIENKESHKELDLPEVKEDNGSEIVYEENTSESNDGESSDSD	binds
Fen1 flap endonuclease (Rad27) (enzyme, UniProt P26793 1-382) MGIKGLNAIISEHVPSAIRKSDIKSFFGRKVAIDASMSLYQFLIAVRQQDGGQLTNEAGETTSHLMGMFYRTLRMIDNGIKPCYVFDGKPPDLKSHELTKRSSRRVETEKKLAEATTELEKMKQERRLVKVSKEHNEEAQKLLGLMGIPYIIAPTEAEAQCAELAKKGKVYAAASEDMDTLCYRTPFLLRHLTFSEAKKEPIHEIDTELVLRGLDLTIEQFVDLCIMLGCDYCESIRGVGPVTALKLIKTHGSIEKIVEFIESGESNNTKWKIPEDWPYKQARMLFLDPEVIDGNEINLKWSPPKEKELIEYLCDDKKFSEERVKSGISRLKKGLKSGIQGRLDGFFQVVPKTKEQLAAAAKRAQENKKLNKNKNKVTKGRR	binds

Next, values leading:

binding	Molecule
binds	Spt16 (FACT subunit) (from UniProt P32558 1-1035)
binds	Rpa49 (RNA pol I subunit) (protein, UniProt Q01080 1-415) MSVKRSVSEIEIESVQDQPSVAVGSFFKGFRAPSDTTFDLYKKKKSEKDEFVLHGENERLEYEGYTDSSSQASNQYVVGLFNPEKKSIQLYKAPVLVSKVVSKSSKNLRGPKIKSKSDTRPSALRNALGEAFGTKKAKKAIADLERNRIDSDKLTDSAIDIVDSVRTASKDLPTRAQLDEITSNDRPTPLANIDATDVEQIYPIESIIPKKELQFIRVSSILKEADKEKKLELFPYQNNSKYVAKKLDSLTQPSQMTKLQLLYYLSLLLGVYENRRVNNKTKLLERLNSPPEILVDGILSRFTVIKPGQFGRSKDRSYFIDPQNEDKILCYILAIIMHLDNFIVEITPLAHELNLKPSKVVSLFRVLGAIVKGATVAQAEAFGIPKSTAASYKIATMKVPFKLPEMTRRGRGPRR
binds	Rpa135 (RNA pol I subunit) (protein, UniProt P22138 1-1203) MSKVIKPPGQARTADFRTLERESRFINPPKDKSAFPLLQEAVQPHIGSFNALTEGPDGGLLNLGVKDIGEKVIFDGKPLNSEDEISNSGYLGNKLSVSVEQVSIAKPMSNDGVSSAVERKVYPSESRQRLTSYRGKLLLKLKWSVNNGEENLFEVRDCGGLPVMLQSNRCHLNKMSPYELVQHKEESDEIGGYFIVNGIEKLIRMLIVQRRNHPMAIIRPSFANRGASYSHYGIQIRSVRPDQTSQTNVLHYLNDGQVTFRFSWRKNEYLVPVVMILKALCHTSDREIFDGIIGNDVKDSFLTDRLELLLRGFKKRYPHLQNRTQVLQYLGDKFRVVFQASPDQSDLEVGQEVLDRIVLVHLGKDGSQDKFRMLLFMIRKLYSLVAGECSPDNPDATQHQEVLLGGFLYGMILKEKIDEYLQNIIAQVRMDINRGMAINFKDKRYMSRVLMRVNENIGSKMQYFLSTGNLVSQSGLDLQQVSGYTVVAEKINFYRFISHFRMVHRGSFFAQLKTTTVRKLLPESWGFLCPVHTPDGSPCGLLNHFAHKCRISTQQSDVSRIPSILYSLGVAPASHTFAAGPSLCCVQIDGKIIGWVSHEQGKIIADTLRYWKVEGKTPGLPIDLEIGYVPPSTRGQYPGLYLFGGHSRMLRPVRYLPLDKEDIVGPFEQVYMNIAVTPQEIQNNVHTHVEFTPTNILSILANLTPFSDFNQSPRNMYQCQMGKQTMGTPGVALCHRSDNKLYRLQTGQTPIVKANLYDDYGMDNFPNGFNAVVAVISYTGYDMDDAMIINKSADERGFGYGTMYKTEKVDLALNRNRGDPITQHFGFGNDEWPKEWLEKLDEDGLPYIGTYVEEGDPICAYFDDTLNKTKIKTYHSSEPAYIEEVNLIGDESNKFQELQTVSIKYRIRRTPQIGDKFSSRHGQKGVCSRKWPTIDMPFSETGIQPDIIINPHAFPSRMTIGMFVESLAGKAGALHGIAQDSTPWIFNEDDTPADYFGEQLAKAGYNYHGNEPMYSGATGEELRADIYVGVVYYQRLRHMVNDKFQVRSTGPVNSLTMQPVKGRKRHGGIRVGEMERDALIGHGTSFLLQDRLLNSSDYTQASVCRECGSILTTQQSVPRIGSISTVCCRRCSMRFEDAKKLLTKSEDGEKIFIDDSQIWEDGQGNKFVGGNETTTVAIPFVLKYLDSELSAMGIRLRYNVEPK

From doi:10.1101/2024.01.05.574312
